{"source": "patent US20230406833A1", "about": "“HERBICIDAL MALONAMIDES” (BASF SE, priority 2020, published 2023)", "assay_type_in_all_cases": "in vivo", "settings_in_all_cases": "0.500 kg/ha, scale from 0 to 100", "key": {"[1]": {"test_system": "Apera spica-venti (APESV)", "assay": "greenhouse pre-emergence herbicidal test", "from_the_text": "(§1) The culture containers used were plastic flowerpots containing loamy sand with approximately 3.0% of humus as the substrate. The seeds of the test plants were sown separately for each species.\n(§2) For the pre-emergence treatment, the active ingredients, which had been suspended or emulsified in water, were applied directly after sowing by means of finely distributing nozzles. The containers were irrigated gently to promote germination and growth and subsequently covered with transparent plastic hoods until the test plants had rooted. This cover caused uniform germination of the test plants, unless this had been impaired by the active ingredients. For the post-emergence treatment, the test plants were first grown to a height of 3 to 15 cm, depending on the plant habit, and only then treated with the active ingredients which had been suspended or emulsified in water. For this purpose, the test plants were either shown directly and grown in the same containers, or they were first grown separately as seedlings and transplanted into the test containers a few days prior to treatment.\n(§3) Depending on the species, the test plants were kept at 10-25° C. or 20-35° C., respectively. The test period extended over 2 to 4 weeks. During this time, the test plants were tended, and their response to the individual treatments was evaluated.\nEvaluation was carried out using a scale from 0 to 100. […]"}, "[2]": {"test_system": "Alopercurus myosuroides (ALOMY)", "assay": "greenhouse post-emergence herbicidal test", "from_the_text": "as §1, §2, §3\n(§4) Evaluation was carried out using a scale from 0 to 100. 100 means no emergence of the test plants, or complete destruction of at least the aerial moieties, and 0 means no damage, or normal course of growth. A good herbicidal activity is given at values of 70 to <90 and a very good herbicidal activity is given at values of 90 to 100.\n(§5) The test plants used in the greenhouse experiments were of the following species: […]"}, "[3]": {"test_system": "Avena fatua (AVEFA)", "assay": "greenhouse post-emergence herbicidal test", "from_the_text": "as §1, §2, §3, §4, §5"}, "[4]": {"test_system": "Amaranthus retroflexus (AMARE)", "assay": "greenhouse post-emergence herbicidal test", "from_the_text": "as §1, §2, §3, §4, §5"}}, "note": "Some entries share one result that the patent states for a list of compounds. At least one structure is not confirmed: it was looked up by name or label, or the drawing left a doubt.", "data": [{"molecule": "COC(=O)[C@@H]1CC[C@H](NC(=O)C2(C(=O)Nc3cc(Cl)cc(Cl)c3)CCCO2)C1", "note": "(stereo partly shown) [Compound I15]", "values": [{"measurement": "herbicidal activity against APESV", "setting": "[1]", "value": "very good (a very good herbicidal activity is given at values of 90 to 100)"}, {"measurement": "herbicidal activity against ALOMY", "setting": "[2]", "value": "very good (a very good herbicidal activity is given at values of 90 to 100)"}, {"measurement": "herbicidal activity against AVEFA", "setting": "[3]", "value": "very good (a very good herbicidal activity is given at values of 90 to 100)"}, {"measurement": "herbicidal activity against AMARE", "setting": "[4]", "value": "very good (a very good herbicidal activity is given at values of 90 to 100)"}]}]}
